{
  "source": "paper PMC10076285",
  "about": "“Oncogenic CALR mutant C-terminus mediates dual binding to the thrombopoietin receptor triggering complex dimerization and activation” (Nature Communications, 2023)",
  "target": "Recombinant CALR ΔC-tail (human) (UniProt P27797)",
  "test": "oligomeric profile in native conditions; recombinant proteins, with or without reducing agent (Supplementary Fig. 14); both purified",
  "note": "Results are given in words; binding and its absence hold for the method and conditions named.",
  "data": [
    {"substance": "Recombinant CALR ΔC-tail (from UniProt P27797 18-366) (domain or fragment)", "values": [
      {"measurement": "binding", "value": "no binding"}
    ]}
  ]
}
